The values that follow come from US20180037892.

The chains behind the UniProt entries cited, without tags or fusion partners. Residues count along the entry.
UniProt P16422, 24-314: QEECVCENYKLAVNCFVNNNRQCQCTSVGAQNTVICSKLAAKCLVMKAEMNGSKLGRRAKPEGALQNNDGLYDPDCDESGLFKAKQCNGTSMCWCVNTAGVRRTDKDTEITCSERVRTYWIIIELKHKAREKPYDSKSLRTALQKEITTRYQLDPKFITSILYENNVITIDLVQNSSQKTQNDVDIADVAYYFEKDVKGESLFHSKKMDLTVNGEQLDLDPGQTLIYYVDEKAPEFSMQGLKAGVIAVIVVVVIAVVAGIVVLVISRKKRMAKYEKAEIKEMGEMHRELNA
UniProt Q62351, whole entry: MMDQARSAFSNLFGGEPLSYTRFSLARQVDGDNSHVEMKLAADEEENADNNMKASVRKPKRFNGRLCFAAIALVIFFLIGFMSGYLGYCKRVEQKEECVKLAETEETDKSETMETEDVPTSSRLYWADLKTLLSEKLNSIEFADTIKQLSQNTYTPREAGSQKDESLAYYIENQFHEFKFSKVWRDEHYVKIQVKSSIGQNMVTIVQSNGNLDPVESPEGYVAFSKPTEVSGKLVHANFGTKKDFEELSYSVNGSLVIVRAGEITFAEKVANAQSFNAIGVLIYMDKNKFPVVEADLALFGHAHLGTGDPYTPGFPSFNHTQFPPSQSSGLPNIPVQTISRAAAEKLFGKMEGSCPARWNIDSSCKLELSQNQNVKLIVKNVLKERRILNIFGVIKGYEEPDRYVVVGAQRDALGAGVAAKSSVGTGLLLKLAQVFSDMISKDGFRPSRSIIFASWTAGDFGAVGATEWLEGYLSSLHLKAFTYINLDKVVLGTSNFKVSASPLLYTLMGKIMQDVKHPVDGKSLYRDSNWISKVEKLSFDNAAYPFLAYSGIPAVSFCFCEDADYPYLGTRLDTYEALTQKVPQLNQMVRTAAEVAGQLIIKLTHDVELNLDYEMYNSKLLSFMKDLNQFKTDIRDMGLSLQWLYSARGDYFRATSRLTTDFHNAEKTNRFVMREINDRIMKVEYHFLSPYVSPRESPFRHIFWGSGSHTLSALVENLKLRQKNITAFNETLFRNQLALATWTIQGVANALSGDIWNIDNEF

One data set deals with EpCAM (UniProt P16422). As to the kind of experiment: flow cytometry. The conditions noted are these: 3' inverted dT, protein on the cell surface, label: 5' TYE665, single-stranded DNA; for Kd: 37 C. For orientation: A flow cytometer gives signals particle by particle.
The target of data set [1] is Transferrin receptor (TfR) (Mus musculus) (UniProt Q62351). As to the kind of experiment: flow cytometry. The conditions noted are these: 3' inverted dT; bEnd.3 cells; internalised; protein on the cell surface; label: 5' TYE665; single-stranded DNA; variant of TfR1.
[2] abbreviates: HEY cells, protein details: native EpCAM on HT29 or HEY cells.
Where [3] appears, read: HT29 cells, no binding to EpCAM-negative HEK293T and K562, protein details: native EpCAM on HT29 or HEY ….

At least one result comes from cells or an extract, where the contact may be indirect. For some assays here: Negatives hold for the conditions tested. For some assays here: The exact form of at least one protein or probe is not confirmed.

Consider ACAGAGGTTGCGTCTGT [Ep7], for which the values for the Kd in the data set with EpCAM (setting [2]) and in the data set with EpCAM (setting [3]) were 248 nM and 11 nM, respectively.
The matching figures for CCCACGTTGTCATGGG [Ep8]: 696 nM and 6.19 nM.
On to “CACTACAGAGGTTGCGTCTGTCCCACGTTGTCATGGGGGGTTGGCCTG [EpCAM full length aptamer (SYL3C, 48-mer)]”, for which the Kd (commonly the constant that tells how readily two partners part at equilibrium) with EpCAM (setting [2]) came out at 495 nM; with EpCAM (HT29 cells, protein details: native EpCAM on HT29 or HEY cells), 9 nM.
For the sequence GCGTGGTCACACGC [TfR4], the binding result in data set [1] is on record as “binds”.
Regarding GCGTGGTACCACGC [TfR3], in the data set with EpCAM (HEY cells, non-specific binding only, not internalised, protein details: native EpCAM on HT29 or HEY cells, variant of TfR1), the binding result is given as “no binding”.
